In paper PMC8856622:
Results are given in words; binding and its absence hold for the method and conditions named. In cells and extracts the contact can be indirect. Some results given as binding are weak or reduced against the parent protein; the word gives no strength.

Sequences of proteins named here, by UniProt entry; tags and fusion partners are left off.
UniProt P06537: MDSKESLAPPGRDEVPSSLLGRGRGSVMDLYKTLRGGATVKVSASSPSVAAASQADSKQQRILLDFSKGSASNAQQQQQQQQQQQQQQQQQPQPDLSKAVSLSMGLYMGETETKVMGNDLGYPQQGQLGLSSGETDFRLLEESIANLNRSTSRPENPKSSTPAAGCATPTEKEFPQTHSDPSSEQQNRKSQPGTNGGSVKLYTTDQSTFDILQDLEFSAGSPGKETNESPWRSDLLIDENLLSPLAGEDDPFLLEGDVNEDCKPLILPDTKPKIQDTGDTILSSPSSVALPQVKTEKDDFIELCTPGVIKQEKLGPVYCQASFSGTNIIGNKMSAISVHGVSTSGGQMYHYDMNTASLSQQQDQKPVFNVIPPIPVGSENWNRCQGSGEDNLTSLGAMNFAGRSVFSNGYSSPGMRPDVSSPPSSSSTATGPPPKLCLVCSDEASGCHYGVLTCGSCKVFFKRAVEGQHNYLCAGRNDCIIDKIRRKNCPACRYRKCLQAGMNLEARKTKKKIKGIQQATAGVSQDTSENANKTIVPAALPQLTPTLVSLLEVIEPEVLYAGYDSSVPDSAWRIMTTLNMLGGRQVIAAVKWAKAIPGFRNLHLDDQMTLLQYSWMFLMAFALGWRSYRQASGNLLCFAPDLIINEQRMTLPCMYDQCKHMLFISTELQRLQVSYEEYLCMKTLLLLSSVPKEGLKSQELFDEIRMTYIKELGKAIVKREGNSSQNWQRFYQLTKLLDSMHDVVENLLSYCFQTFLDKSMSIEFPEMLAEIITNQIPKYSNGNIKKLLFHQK
UniProt Q9WTL8: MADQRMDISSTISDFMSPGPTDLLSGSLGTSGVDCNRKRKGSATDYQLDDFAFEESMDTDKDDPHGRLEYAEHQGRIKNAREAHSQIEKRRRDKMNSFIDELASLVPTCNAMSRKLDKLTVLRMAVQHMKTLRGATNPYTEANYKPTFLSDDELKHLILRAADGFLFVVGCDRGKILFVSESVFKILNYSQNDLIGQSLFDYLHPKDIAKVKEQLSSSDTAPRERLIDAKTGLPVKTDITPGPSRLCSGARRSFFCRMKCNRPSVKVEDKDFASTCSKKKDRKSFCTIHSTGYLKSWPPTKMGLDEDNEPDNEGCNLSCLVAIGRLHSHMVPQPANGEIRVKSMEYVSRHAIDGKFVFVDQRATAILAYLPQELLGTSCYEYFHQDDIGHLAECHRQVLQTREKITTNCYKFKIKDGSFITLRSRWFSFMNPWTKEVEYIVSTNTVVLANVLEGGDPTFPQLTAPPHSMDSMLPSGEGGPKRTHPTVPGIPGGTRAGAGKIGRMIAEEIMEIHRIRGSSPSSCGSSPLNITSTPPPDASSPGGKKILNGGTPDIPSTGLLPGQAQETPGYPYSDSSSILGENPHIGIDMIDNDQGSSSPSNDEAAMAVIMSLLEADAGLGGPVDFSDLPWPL
UniProt Q9EPW2: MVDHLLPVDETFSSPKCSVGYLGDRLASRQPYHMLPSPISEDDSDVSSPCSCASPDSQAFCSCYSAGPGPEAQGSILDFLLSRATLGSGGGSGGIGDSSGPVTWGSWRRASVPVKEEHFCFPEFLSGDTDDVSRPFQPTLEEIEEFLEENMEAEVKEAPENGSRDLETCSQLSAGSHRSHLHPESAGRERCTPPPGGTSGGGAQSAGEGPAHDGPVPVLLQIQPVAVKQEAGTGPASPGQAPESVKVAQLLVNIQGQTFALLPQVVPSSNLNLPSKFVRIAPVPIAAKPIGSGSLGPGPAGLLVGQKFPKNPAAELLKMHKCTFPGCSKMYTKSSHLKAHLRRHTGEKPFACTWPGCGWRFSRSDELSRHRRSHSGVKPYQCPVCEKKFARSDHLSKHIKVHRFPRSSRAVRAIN

How the values were obtained:
[1] = target: glucocorticoid receptor (GR), endogenous (mouse (endogenous in muscle tissue)) (UniProt P06537); experiment: co-IP; IP of endogenous GR from mouse muscle tissue lysate at 4 hours (ZT4) after in vivo prednisone or vehicle pulse at ZT0, with or without overexpression of FLAG-tagged REV-ERBα; immunoblot for BMAL1
[2] = target: FLAG (DDK)-tagged BMAL1 (BMAL1-FLAG) (UniProt Q9WTL8); experiment: co-IP; cross-tag IP from whole lysates of electroporated mouse muscle co-overexpressing GR-GFP and BMAL1-FLAG, lysed 4 hours after a light-phase (ZT0) intraperitoneal prednisone pulse; ~100 ug lysate rotated overnight at 4°C with pull-down antibody (GFP- or FLAG-based), Dynabeads, four washes, immunoblot
[3] = target: GFP-tagged glucocorticoid receptor (GR-GFP) (UniProt P06537); experiment: co-IP; cross-tag IP with KLF15 and GR (fig. S4D), done to validate the approach; conditions not given
[4] = target: GFP-tagged glucocorticoid receptor (GR-GFP) (UniProt P06537); experiment: co-IP; cross-tag IP from whole lysates of electroporated mouse muscle co-overexpressing GR-GFP and BMAL1-FLAG, lysed 4 hours after a light-phase (ZT0) intraperitoneal prednisone pulse; ~100 ug lysate rotated overnight at 4°C with pull-down antibody (GFP- or FLAG-based), Dynabeads, four washes, immunoblot

Substance: BMAL1 (Brain and muscle Arnt-like protein-1), endogenous (from UniProt Q9WTL8 1-632)
- binding [1]: binds

Substance: GFP-tagged glucocorticoid receptor (GR-GFP) (from UniProt P06537 1-792)
- binding [2]: binds

Substance: Krüppel-like factor 15 (KLF15), tagged construct (from UniProt Q9EPW2 1-415)
- binding [3]: binds

Substance: FLAG (DDK)-tagged BMAL1 (BMAL1-FLAG) (from UniProt Q9WTL8 1-632)
- binding [4]: binds
